Values after ≈ are worked out from the molar mass of the structure shown. Further values from the same series stand in other lists.
Test system: Escherichia coli
Test: minimum inhibitory concentration (MIC)
Description: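 Broth microdilution MIC (Sensititre BOPO7F bovine plate, CLSI methods) of 19 antimicrobials against field isolates of P. multocida, M. haemolytica, H. somni (deep nasopharyngeal swabs) and E. coli, Enterococcus spp. (rectal swabs) from weaned dairy heifers. Incubation 16-24 h at 35 C. MIC is the lowest concentration preventing visible growth. Values with <= or > lie at the tested range limits. Trimethoprim-sulfamethoxazole is given as the trimethoprim component of a 1:19 mixture.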

CN[C@@H]1[C@H](O)[C@H](NC)[C@H]2O[C@@]3(O)C(=O)C[C@@H](C)O[C@H]3O[C@@H]2[C@H]1O [Spectinomycin]
Conditions	minimum inhibitory concentration [µg/mL]
isolate (source animal id): 221	≤ 8
isolate (source animal id): 222	16 (≈ 48.1 µM)
isolate (source animal id): 223	16 (≈ 48.1 µM)
isolate (source animal id): 224	16 (≈ 48.1 µM)
isolate (source animal id): 225	> 64
isolate (source animal id): 226	> 64
isolate (source animal id): 227	16 (≈ 48.1 µM)
isolate (source animal id): 228	> 64
isolate (source animal id): 229	> 64
isolate (source animal id): 230	16 (≈ 48.1 µM)
isolate (source animal id): 231	16 (≈ 48.1 µM)
isolate (source animal id): 232	16 (≈ 48.1 µM)
isolate (source animal id): 233	32 (≈ 96.3 µM)
isolate (source animal id): 234	16 (≈ 48.1 µM)
isolate (source animal id): 235	16 (≈ 48.1 µM)
isolate (source animal id): 236	16 (≈ 48.1 µM)
isolate (source animal id): 237	> 64
isolate (source animal id): 238	> 64
isolate (source animal id): 239	16 (≈ 48.1 µM)
isolate (source animal id): 240	> 64
isolate (source animal id): 241	> 64
isolate (source animal id): 242	32 (≈ 96.3 µM)
isolate (source animal id): 243	16 (≈ 48.1 µM)
isolate (source animal id): 244	16 (≈ 48.1 µM)
isolate (source animal id): 245	> 64
isolate (source animal id): 246	16 (≈ 48.1 µM)
isolate (source animal id): 247	16 (≈ 48.1 µM)
isolate (source animal id): 248	16 (≈ 48.1 µM)
isolate (source animal id): 249	16 (≈ 48.1 µM)
isolate (source animal id): 250	16 (≈ 48.1 µM)
isolate (source animal id): 251	> 64
isolate (source animal id): 252	16 (≈ 48.1 µM)
isolate (source animal id): 253	16 (≈ 48.1 µM)
isolate (source animal id): 254	16 (≈ 48.1 µM)
isolate (source animal id): 255	> 64
isolate (source animal id): 256	> 64
isolate (source animal id): 257	16 (≈ 48.1 µM)
isolate (source animal id): 258	16 (≈ 48.1 µM)
isolate (source animal id): 259	> 64
isolate (source animal id): 260	16 (≈ 48.1 µM)
isolate (source animal id): 261	16 (≈ 48.1 µM)
isolate (source animal id): 262	16 (≈ 48.1 µM)
isolate (source animal id): 263	16 (≈ 48.1 µM)
isolate (source animal id): 264	16 (≈ 48.1 µM)
isolate (source animal id): 265	> 64
isolate (source animal id): 266	32 (≈ 96.3 µM)
isolate (source animal id): 267	> 64
isolate (source animal id): 268	16 (≈ 48.1 µM)
isolate (source animal id): 269	16 (≈ 48.1 µM)
isolate (source animal id): 270	16 (≈ 48.1 µM)
isolate (source animal id): 271	> 64
isolate (source animal id): 272	≤ 8
isolate (source animal id): 273	16 (≈ 48.1 µM)
isolate (source animal id): 274	> 64
isolate (source animal id): 275	> 64
isolate (source animal id): 276	> 64
isolate (source animal id): 277	16 (≈ 48.1 µM)
isolate (source animal id): 278	16 (≈ 48.1 µM)
isolate (source animal id): 279	16 (≈ 48.1 µM)
isolate (source animal id): 280	> 64
isolate (source animal id): 281	16 (≈ 48.1 µM)
isolate (source animal id): 282	16 (≈ 48.1 µM)
isolate (source animal id): 283	16 (≈ 48.1 µM)
isolate (source animal id): 284	> 64
isolate (source animal id): 285	≤ 8
isolate (source animal id): 286	> 64
isolate (source animal id): 287	> 64
isolate (source animal id): 288	16 (≈ 48.1 µM)
isolate (source animal id): 289	16 (≈ 48.1 µM)
isolate (source animal id): 290	16 (≈ 48.1 µM)
isolate (source animal id): 291	> 64
isolate (source animal id): 292	16 (≈ 48.1 µM)
isolate (source animal id): 293	32 (≈ 96.3 µM)
isolate (source animal id): 294	16 (≈ 48.1 µM)
isolate (source animal id): 295	> 64
isolate (source animal id): 296	16 (≈ 48.1 µM)
isolate (source animal id): 297	≤ 8
isolate (source animal id): 298	> 64
isolate (source animal id): 299	16 (≈ 48.1 µM)
isolate (source animal id): 300	16 (≈ 48.1 µM)
isolate (source animal id): 301	16 (≈ 48.1 µM)
isolate (source animal id): 302	16 (≈ 48.1 µM)
isolate (source animal id): 303	16 (≈ 48.1 µM)
isolate (source animal id): 304	16 (≈ 48.1 µM)
isolate (source animal id): 305	32 (≈ 96.3 µM)
isolate (source animal id): 306	16 (≈ 48.1 µM)
isolate (source animal id): 307	16 (≈ 48.1 µM)
isolate (source animal id): 308	16 (≈ 48.1 µM)
isolate (source animal id): 309	16 (≈ 48.1 µM)
isolate (source animal id): 310	16 (≈ 48.1 µM)
isolate (source animal id): 311	> 64
isolate (source animal id): 312	32 (≈ 96.3 µM)
isolate (source animal id): 313	16 (≈ 48.1 µM)
isolate (source animal id): 314	16 (≈ 48.1 µM)
isolate (source animal id): 315	16 (≈ 48.1 µM)
isolate (source animal id): 316	> 64
isolate (source animal id): 317	> 64
isolate (source animal id): 318	16 (≈ 48.1 µM)
isolate (source animal id): 319	16 (≈ 48.1 µM)
isolate (source animal id): 320	≤ 8
isolate (source animal id): 321	> 64
isolate (source animal id): 322	32 (≈ 96.3 µM)
isolate (source animal id): 323	> 64
isolate (source animal id): 324	16 (≈ 48.1 µM)
isolate (source animal id): 325	> 64
isolate (source animal id): 326	16 (≈ 48.1 µM)
isolate (source animal id): 327	16 (≈ 48.1 µM)
isolate (source animal id): 328	≤ 8
isolate (source animal id): 329	16 (≈ 48.1 µM)
isolate (source animal id): 330	32 (≈ 96.3 µM)
isolate (source animal id): 331	> 64
isolate (source animal id): 332	≤ 8
isolate (source animal id): 333	16 (≈ 48.1 µM)
isolate (source animal id): 334	> 64
isolate (source animal id): 335	16 (≈ 48.1 µM)
isolate (source animal id): 336	16 (≈ 48.1 µM)
isolate (source animal id): 337	> 64
isolate (source animal id): 338	> 64
isolate (source animal id): 339	≤ 8
isolate (source animal id): 340	16 (≈ 48.1 µM)
isolate (source animal id): 341	≤ 8
